The record followed here is paper PMC7819943, “Rice protein-binding microarrays: a tool to detect cis-acting elements near promoter regions in rice”.

Sequences of proteins named here, by UniProt entry; tags and fusion partners are left off.
UniProt Q0JBA9, entry or part of it: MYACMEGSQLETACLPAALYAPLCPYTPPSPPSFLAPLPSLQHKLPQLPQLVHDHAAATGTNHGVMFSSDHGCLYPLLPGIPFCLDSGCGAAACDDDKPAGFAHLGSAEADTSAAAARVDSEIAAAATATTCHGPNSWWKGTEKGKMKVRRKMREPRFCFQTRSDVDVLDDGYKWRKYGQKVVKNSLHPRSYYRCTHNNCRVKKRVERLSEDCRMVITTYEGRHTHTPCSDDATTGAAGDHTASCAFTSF

The list shows a part of the results.

The target of the experiment is OsWRKY34 (Oryza sativa, UniProt Q0JBA9 1-250). Kind of experiment: protein-binding microarray (RPBM); PBS, 2% BSA, 51.3 ng/ul salmon testes DNA, 50 uM zinc acetate, 200 nM TF, 25 C, 1 h; high values mean tight binding. Conditions: protein: recombinant; tags: N-terminal polyhistidine and DsRed monomer fusion (pET32a); label: CyDye5-dUTP incorporated in the synthesized complementary strand; 3' TTTTT single-stranded linker to array surface; dsDNA, one strand shown. In a few lines: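 Using Ni–NTA, transcription factors fused N-terminally to polyhistidine and DsRed were purified after expression in E. coli BL21-CodonPlus. These were incubated at 200 nM with a blocked, double-stranded custom Agilent array for 1 h at 25 °C in a buffer containing 50 µM zinc acetate, and the array was washed. The binding signal is per-feature fluorescence intensity (arbitrary units) on an Axon 4000B scanner.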
Take “GAAAGTTGACTCTGTGCGATTTCTTCTTCTTCGTGTTGTTCGGAGTCACCTAGTGCAG”: the binding signal was 13900 fluorescence intensity (a.u.).

As to “GCCACTGCCACTGCCACCGGTCACACTCGTCAGGCACTCACGGAGTCACCTAGTGCAG”, the binding signal is 8610 fluorescence intensity (a.u.).

Turning to “CCATCTCTCCCAAGCTTCTTCCTTCTAATCCTTGCTGACACGGAGTCACCTAGTGCAG”, the binding signal was 8620 fluorescence intensity (a.u.).

Regarding “GCCTCTTCATTTTTTTTTCCTCAACTCATCATATTCATACCGGAGTCACCTAGTGCAG”, the binding signal is 10300 fluorescence intensity (a.u.).

Turning to “TTTCCTACTCTTTGCACTTACATTTGTAGTTTTATGTTTACGGAGTCACCTAGTGCAG”, the binding signal was 10100 fluorescence intensity (a.u.).

Consider “CAACTTTAAATCTCTCTTAGTTGCTCTTGGTCATTTTTATCGGAGTCACCTAGTGCAG”, for which the binding signal is 9810 fluorescence intensity (a.u.).

As to “ACACCACCTGCTCCTGCCGCCAAACAACCAGCCATGCTCACGGAGTCACCTAGTGCAG”, the binding signal is 9180 fluorescence intensity (a.u.).

With “ACATACTCAAAAGATATATTTTGAAATCCTTGTCATTGTACGGAGTCACCTAGTGCAG”, the binding signal was 8150 fluorescence intensity (a.u.).

For “AGCCCACTTGTGTCCTGCCACGTGTGTTATATCCTGAATACGGAGTCACCTAGTGCAG”, the binding signal is 10000 fluorescence intensity (a.u.).

On to “GGCGGTGGGTGGGTGGAGCCGTGGAGGGATGGAGGGAGGGCGGAGTCACCTAGTGCAG”, for which the binding signal is 37900 fluorescence intensity (a.u.).

Take “TATCCCTCTCTCTCTCTCACACACATCTCTTTTTGCAAGACGGAGTCACCTAGTGCAG”: the binding signal was 8570 fluorescence intensity (a.u.).

On to “GTTCTTCTCTTCTGCATTTTGCCTGGAGTTCATGGCTAATCGGAGTCACCTAGTGCAG”, for which the binding signal was 8550 fluorescence intensity (a.u.).

Take “TTGTCAACCGTGAGAATTGCTACCTGCTGCTTACTCCCACCGGAGTCACCTAGTGCAG”: the binding signal was 8410 fluorescence intensity (a.u.).

For the sequence “GATTCTTCTTATTGCTTTTTGGGTAGTTTCACCTTTTTCACGGAGTCACCTAGTGCAG”, the binding signal was 10700 fluorescence intensity (a.u.).

Regarding “CTACTCCACTTACATGGTTTTCTCCTATACCGACCGCAACCGGAGTCACCTAGTGCAG”, the binding signal was 9070 fluorescence intensity (a.u.).

On to “AAACTTCCAACTTTTCCATCACATCAAAGCTTTCTTACTCCGGAGTCACCTAGTGCAG”, for which the binding signal was 8030 fluorescence intensity (a.u.).

Consider “TGCAACACTAAACACATGGGCCCACATGTCAGTCTGCCGCCGGAGTCACCTAGTGCAG”, for which the binding signal is 8240 fluorescence intensity (a.u.).

For “CTCACGTGCGCGCCACCACCACCCCATGCAGACCCAGCAGCGGAGTCACCTAGTGCAG”, the binding signal was 8480 fluorescence intensity (a.u.).

With “CTTCTCCATAGCTCACGCTCCTTCACGCACACGCCTCGCTCGGAGTCACCTAGTGCAG”, the binding signal was 8970 fluorescence intensity (a.u.).

With “CGTGATGAATCTTGGCATGCGTCTATTAGCTGTGCCCACGCGGAGTCACCTAGTGCAG”, the binding signal was 8780 fluorescence intensity (a.u.).

With “TCCGCCGCCTCGCTCGCTCGCTCGCCGTCCGCCGCCTCGCCGGAGTCACCTAGTGCAG”, the binding signal was 8640 fluorescence intensity (a.u.).

Take “ACCCTCCCCACTCTGCCCTACTTTCTCTCTCTACACCCATCGGAGTCACCTAGTGCAG”: the binding signal is 8350 fluorescence intensity (a.u.).

With “GAGAATGGAACAATATAGGGGTATTGCTAGTGGGCGGGTGCGGAGTCACCTAGTGCAG”, the binding signal was 9830 fluorescence intensity (a.u.).

“CTTCTTTCCTCTCTGAGCCATTTTCAGCCCATGTTCTTCACGGAGTCACCTAGTGCAG”: the binding signal is 9190 fluorescence intensity (a.u.).

Consider “GATCGCACACCCAATTGATCACTCATTATGGCGTATTCCGCGGAGTCACCTAGTGCAG”, for which the binding signal was 8780 fluorescence intensity (a.u.).

In the case of “GTTATTAGTCTATGTTTAATACTTCAAATGTGTGTTTGTACGGAGTCACCTAGTGCAG”, the binding signal was 9290 fluorescence intensity (a.u.).

With “CACCTGTATCTCATCGACCCTGAAGCTTCAACATTGCTAACGGAGTCACCTAGTGCAG”, the binding signal was 14500 fluorescence intensity (a.u.).

For “CAGAGCCCTCACGCTTCCGCAACCACCACCGCGTCCGTGACGGAGTCACCTAGTGCAG”, the binding signal was 10400 fluorescence intensity (a.u.).

On to “CGAACCACTTGCTCCCGCCATTAATCGCTTCCTCCAACTCCGGAGTCACCTAGTGCAG”, for which the binding signal is 9270 fluorescence intensity (a.u.).

As for “TATCTTGCCTAGCATATTGTCCGTGCGTTATTGCGATTTTCGGAGTCACCTAGTGCAG”, the binding signal was 10500 fluorescence intensity (a.u.).

For the sequence “TTATTTTCTTCGTATTGATTTATTGTACAATGTTACTGTACGGAGTCACCTAGTGCAG”, the binding signal was 8250 fluorescence intensity (a.u.).

Consider “TCCAGCTGTTGTTCTTGATTCCTTGTTCTTCGGCGATCATCGGAGTCACCTAGTGCAG”, for which the binding signal was 8850 fluorescence intensity (a.u.).

In the case of “CCGGCCATGAATTCCTACGTCCGTCACTGTTCACATCTATCGGAGTCACCTAGTGCAG”, the binding signal is 9710 fluorescence intensity (a.u.).

With “CTTGCGGTTCATTTGGGGTTGGTTGGTTCTAGGGTACTGTCGGAGTCACCTAGTGCAG”, the binding signal is 16700 fluorescence intensity (a.u.).

On to “ATGTTTACTAGTTAACTAGCATTCCTTTAATTTCATATTTCGGAGTCACCTAGTGCAG”, for which the binding signal was 8850 fluorescence intensity (a.u.).

Take “TCCTGTGTTTTTCCTATTCCTCTGTTTTTTCATTCCTACGCGGAGTCACCTAGTGCAG”: the binding signal was 14000 fluorescence intensity (a.u.).

On to “TCCGCCGTCGTCTTTTTTGCGCAAACTTCCACACCACCACCGGAGTCACCTAGTGCAG”, for which the binding signal is 10900 fluorescence intensity (a.u.).

Consider “AGCTTCGACACTGCACTCAATGCCCTCACACGCTAAAGGCCGGAGTCACCTAGTGCAG”, for which the binding signal was 8360 fluorescence intensity (a.u.).

Regarding “CTCTCTTTATGTATGTCTCCCATTCACGTAGGCGTGTTATCGGAGTCACCTAGTGCAG”, the binding signal was 8100 fluorescence intensity (a.u.).

Consider “CTCAGGTCAAACTTGGACTTTATCCATCATTCCATCCTCTCGGAGTCACCTAGTGCAG”, for which the binding signal was 8830 fluorescence intensity (a.u.).

On to “CCGGCGCCACCAGCTTCCCGCTCGTCATCAACAGCGCCGCCGGAGTCACCTAGTGCAG”, for which the binding signal is 9690 fluorescence intensity (a.u.).

On to “ATGAGTATATATAAGCTTAGTCTCTTTTCTTTTCTTTCTTCGGAGTCACCTAGTGCAG”, for which the binding signal was 8940 fluorescence intensity (a.u.).

As for “GCTTGGCCTCTCTCTCTTTAGTTTAGCCGCAAACAATTTCCGGAGTCACCTAGTGCAG”, the binding signal was 9000 fluorescence intensity (a.u.).

Regarding “TGTATTCCGCTCCGGTTCGGCGACACTCCACGTTCCAGTCCGGAGTCACCTAGTGCAG”, the binding signal was 8620 fluorescence intensity (a.u.).

As for “ACTACCTCCACCCTCTTCTCTAATGATTTGCCTCGCTTGACGGAGTCACCTAGTGCAG”, the binding signal was 8500 fluorescence intensity (a.u.).

Turning to “TTCTTGTCTCTTCTCCCTTTCCGCCTCGCCTCGCCTCGCTCGGAGTCACCTAGTGCAG”, the binding signal was 8390 fluorescence intensity (a.u.).

Regarding “TTGTGGAGATTACCGTTTCTTATAATATAGTAATTACCGTCGGAGTCACCTAGTGCAG”, the binding signal was 8110 fluorescence intensity (a.u.).

For the sequence “GCTATCTCTGCAGCTGCAACCAATTGGCATGTGTGTGGCACGGAGTCACCTAGTGCAG”, the binding signal is 9880 fluorescence intensity (a.u.).

Regarding “GATGGCATCAACCGCGTCTCTCTCTCTCTCTCTCGCCATCCGGAGTCACCTAGTGCAG”, the binding signal was 8020 fluorescence intensity (a.u.).

As to “GCAAAATCAAGGTGGCCTATCGGACTCATTCCTCTCCATCCGGAGTCACCTAGTGCAG”, the binding signal was 8670 fluorescence intensity (a.u.).

Regarding “TCCGTTCCGTGCTCTGTGTCCCATACTCTACGGCCACGCCCGGAGTCACCTAGTGCAG”, the binding signal was 10100 fluorescence intensity (a.u.).

“CACTTCCTACCAGCATCCAAACATTCTAGCCAGGAACAAACGGAGTCACCTAGTGCAG”: the binding signal was 8310 fluorescence intensity (a.u.).

On to “AAACTTCTAACTTTTCCATCACATCAAAGCTTTCCTACACCGGAGTCACCTAGTGCAG”, for which the binding signal was 8390 fluorescence intensity (a.u.).

For the sequence “ACCCATCATCATTTTCCACATATTTTTTCTTTTCAGCTCCCGGAGTCACCTAGTGCAG”, the binding signal is 8810 fluorescence intensity (a.u.).
